Data reported in patent US11426367B2, “Methods of treating substance abuse” (Perception Neuroscience, Inc., priority 2018, dated 2022).

Conditions: morphine 10 mg/kg SC twice daily, measured 2 h post dose on days 3, 6, 9 and 12; previous in-house studies

## CN1CC[C@]23c4c5ccc(O)c4O[C@H]2[C@@H](O)C=C[C@H]3[C@H]1C5 [morphine, Morphine]
  morphine plasma levels: -550 ng/mL
